Laboratory results as given in publication PMC10797686.
No constants are given. Whether binding was seen depends on the method and setting. Binding seen in cells or lysates may run through a third protein. Sequences can lack the tags named with a protein.

By UniProt entry, the sequences of proteins in these tests, tags left out.
UniProt O95863: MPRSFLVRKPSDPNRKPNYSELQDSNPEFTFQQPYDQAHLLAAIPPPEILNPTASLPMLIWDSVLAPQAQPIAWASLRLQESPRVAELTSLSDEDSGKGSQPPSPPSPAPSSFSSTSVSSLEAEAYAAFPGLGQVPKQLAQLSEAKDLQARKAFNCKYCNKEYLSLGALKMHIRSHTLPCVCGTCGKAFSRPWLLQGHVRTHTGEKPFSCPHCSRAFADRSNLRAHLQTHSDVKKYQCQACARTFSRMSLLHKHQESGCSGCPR

Biological target: Flag-tagged Snail1 (Flag-Snail1) (UniProt O95863)
Experiment: co-IP; exogenous co-IP: HEK293T, AGS and MKN-45 cells transfected for 48 h with Flag- and HA-tagged vectors (truncation mutants in HEK293T only); anti-Flag antibody on Protein A/G magnetic beads, 30 min at room temperature, washed four times with PBST; Western blot

B1: HA-tagged USP35 truncation mutant with the C-terminal USP domain deleted (domain or fragment, UniProt Q9P2H5 1-432)
chain: MDKILEAVVTSSYPVSVKQGLVRRVLEAARQPLEREQCLALLALGARLYVGGAEELPRRVGCQLLHVAGRHHPDVFAEFFSARRVLRLLQGGAGPPGPRALACVQLGLQLLPEGPAADEVFALLRREVLRTVCERPGPAACAQVARLLARHPRCVPDGPHRLLFCQQLVRCLGRFRCPAEGEEGAVEFLEQAQQVSGLLAQLWRAQPAAILPCLKELFAVISCAEEEPPSSALASVVQHLPLELMDGVVRNLSNDDSVTDSQMLTAISRMIDWVSWPLGKNIDKWIIALLKGLAAVKKFSILIEVSLTKIEKVFSKLLYPIVRGAALSVLKYMLLTFQHSHEAFHLLLPHIPPMVASLVKEDSNSGTSCLEQLAELVHCMVFRFPGFPDLYEPVMEAIKDLHVPNEDRIKQLLGQDAWTSQKSELAGFYPRL
B1 was tested, and the binding was “no binding”.
